From article PMC8349660
Results are given in words; binding and its absence hold for the method and conditions named. Binding seen in cells or lysates may run through a third protein. Some results given as binding are weak or reduced against the parent protein; the word gives no strength. For some of these results: Sequences can lack the tags named with a protein.

Tests used:
GST-p53 = GST-p53 (UniProt P04637); assay: pull-down; GST fusion protein from E. coli BL21 on Glutathione-Sepharose 4B beads mixed with in vitro-transcribed/translated partner (TNT), binding buffer 2 h at 4°C, five washes, Western blot; only the target purified
GST-fused BCAS3 (human) = GST-fused BCAS3 (human) (UniProt Q9H6U6); assay: as above
[1] = target: T1, GST-fused BCAS3-WD40 domain (1-504 aa) (human) (UniProt Q9H6U6); assay: as above
T1 sequence: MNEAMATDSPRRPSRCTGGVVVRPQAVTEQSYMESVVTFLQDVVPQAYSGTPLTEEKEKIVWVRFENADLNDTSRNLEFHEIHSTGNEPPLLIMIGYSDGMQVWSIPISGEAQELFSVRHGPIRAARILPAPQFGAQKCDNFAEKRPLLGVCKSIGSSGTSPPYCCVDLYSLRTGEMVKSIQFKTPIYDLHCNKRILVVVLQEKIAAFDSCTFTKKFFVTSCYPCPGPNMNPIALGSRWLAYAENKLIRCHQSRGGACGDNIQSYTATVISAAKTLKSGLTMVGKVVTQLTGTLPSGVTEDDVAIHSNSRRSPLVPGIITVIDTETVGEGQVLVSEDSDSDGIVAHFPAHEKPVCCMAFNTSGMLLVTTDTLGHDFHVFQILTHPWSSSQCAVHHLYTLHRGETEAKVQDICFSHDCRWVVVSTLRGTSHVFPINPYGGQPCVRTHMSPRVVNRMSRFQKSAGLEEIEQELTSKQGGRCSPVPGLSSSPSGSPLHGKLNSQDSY

[2] = target: BCAS3 (breast cancer-amplified sequence 3) (human (endogenous in HEK 293T and MCF-7)) (UniProt Q9H6U6); assay: co-IP; whole-cell lysates of HEK 293T and MCF-7 cells, specific antibodies or normal IgG overnight at 4°C, protein A/G Sepharose beads 2 h at 4°C, immunoblot

## in vitro transcribed-translated BCAS3 (from UniProt Q9H6U6 1-928)
GST-p53
  binding: binds

## in vitro-transcribed/translated p53 (from UniProt P04637 1-393)
GST-fused BCAS3 (human)
  binding: binds
[1]
  binding: binds

## p53 (from UniProt P04637 1-393)
[2]
  binding: binds
